As usually defined, the Kd is a measure of binding affinity in units of concentration.

Series [1] addresses T1, RTEL1 HHD2 (Homo sapiens) (UniProt Q9NZ71).
T1 sequence (looked up, limits assumed): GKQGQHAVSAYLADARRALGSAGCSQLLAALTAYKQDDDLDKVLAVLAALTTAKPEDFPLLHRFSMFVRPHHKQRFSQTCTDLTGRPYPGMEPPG
Put plainly: fluorescence anisotropy. The note with it: 0.5 mM Mg2+, 20 mM Tris pH 7.5, 50 mM KCl, 0.5 mM MgCl2, 10% glycerol, 0.1% Igepal, 10 nM substrate, recombinant protein, protein details: N-terminal 6His-Trx removed by TEV, label: 5' 6-FAM. On the technique in general: Fluorescence polarisation rises when a labelled molecule tumbles more slowly, as on binding a larger partner.

The test system of series [2] is RTEL1 HHD1-2 (Homo sapiens). Put plainly: fluorescence anisotropy. As to conditions: 0.5 mM Mg2+, Kd given as NA (not applicable); 20 mM Tris pH 7.5, 50 mM KCl, 0.5 mM MgCl2, 10% glycerol, 0.1% Igepal, 10 nM substrate; recombinant protein; protein details: N-terminal 6His-Trx removed by TEV; label: 5' 6-FAM on strand 1 (D9); folded or branched DNA.

The exact form of at least one protein or probe is not confirmed. For part of these data: The comparison behind a weaker result is the experiment's own reference, which may not be listed here. For part of these data: Where a protein sequence is shown, tags need not be part of it.

Take “CUACCCCCACCCUCACAACCUUUUUUUUUUUUUUU [ssRNA]”: in series [1], the Kd came to 235 nM. With “GTACCCGGGGATCCTCTAGAGTCGACCTGCAGGCATGCAAGCTTGGCACTGGCCGTCGTTTTACAAC / GTTGTAAAACGACGGCCAGTGCCTTTTCCCAGCCTCAATCTCATCACTCTAGAGGATCCCCGGGTAC [Bubble (D9:D11)]”, the binding result in series [2] was “binds more weakly”. As to “CTACTACCCCCACCCTCACAACCTTTTTTTTTTTTTTT [ssDNA]”, the Kd in series [1] (single-stranded DNA) was found to be 684 nM.

The values are drawn from article PMC11344278, “Structural and biochemical characterization of the C‐terminal region of the human RTEL1 helicase” (Protein Science : A Publication of the Protein Society, 2024).
